Results from patent US20140193431A1 (KOREA RESEARCH INSTITUTE OF BIOSCIENCE AND BIOTECHNOLOGY, published 2014).
Results are given in words; binding and its absence hold for the method and conditions named. Some entries that bind do so weakly or less than the wild type.

Sequences of proteins named here, by UniProt entry; tags and fusion partners are left off. Residues count along the entry.
UniProt P08581, residues 25-932: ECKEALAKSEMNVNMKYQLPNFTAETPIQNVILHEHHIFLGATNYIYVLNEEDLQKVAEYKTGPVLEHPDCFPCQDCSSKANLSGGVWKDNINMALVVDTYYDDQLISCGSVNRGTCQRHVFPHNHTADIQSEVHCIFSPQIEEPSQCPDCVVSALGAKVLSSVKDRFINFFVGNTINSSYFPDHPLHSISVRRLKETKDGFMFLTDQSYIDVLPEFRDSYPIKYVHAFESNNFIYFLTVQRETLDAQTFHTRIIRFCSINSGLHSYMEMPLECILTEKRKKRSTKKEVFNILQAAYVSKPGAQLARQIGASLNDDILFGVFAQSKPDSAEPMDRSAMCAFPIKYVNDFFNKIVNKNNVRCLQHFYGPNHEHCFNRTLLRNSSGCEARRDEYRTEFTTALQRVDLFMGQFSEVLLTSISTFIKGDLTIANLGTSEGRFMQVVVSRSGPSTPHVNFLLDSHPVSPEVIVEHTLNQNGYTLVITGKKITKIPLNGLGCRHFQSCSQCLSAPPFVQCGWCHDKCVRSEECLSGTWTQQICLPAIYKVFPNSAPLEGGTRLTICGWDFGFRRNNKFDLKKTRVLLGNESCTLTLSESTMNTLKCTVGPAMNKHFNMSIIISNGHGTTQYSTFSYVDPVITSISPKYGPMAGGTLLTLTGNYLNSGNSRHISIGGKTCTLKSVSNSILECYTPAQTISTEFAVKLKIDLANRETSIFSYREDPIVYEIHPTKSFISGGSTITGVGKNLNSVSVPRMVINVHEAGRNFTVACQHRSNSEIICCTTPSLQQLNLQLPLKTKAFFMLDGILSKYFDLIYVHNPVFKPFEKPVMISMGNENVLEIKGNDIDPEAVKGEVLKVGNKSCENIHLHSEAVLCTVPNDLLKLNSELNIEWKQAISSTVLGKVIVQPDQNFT

Target: c-Met (extracellular domain)-Fc (human) (UniProt P08581)
Test: phage display selection on c-Met-Fc

B1: B7 scFv-phage clone (scFv, V domains shown)
VH: QVQLQEWGAGLLKPSETLSLTCAVSGGSLSGHYWSWVRLPPGKGLEWIGEISHSGNTNYNSSLKSRASISIDTSKNEYSLNLKSVTAVDTAVYYCARFYGDYPSSYGMDVWGQGTTVTVSS
VL: QSALTQPASVSGSPGQSITISCTGTISDIGTYDFVSWYQHKPGKAPKLLIFDVNNRPSGVSSRFSGSKSDNTASLSISGFQAEDEADYYCSSYTDNRGLVLFGGGTKLTVLR
- binding: binds
